Percent effect of library compounds

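Whole-cell growth test on Mycobacterium tuberculosis, read after 4 days in a medium based on cholesterol and the lipid DPPC; the read-out is not stated. Concentration: 500 µM. The record gives no direction; compounds that gave an IC50 in retests scored well above the rest, so higher reads as more growth inhibition. Of about 18,000 compounds tested this way, about 900 (5%) reached 50% or more in at least one test.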

Results are given as percent effect. The controls that fix the scale are not given in the record; negative values are as filed. This is an unselected part of the compounds tested.

| # | Compound | effect |
|---|---|---|
| 1 | `COC(=O)CCCC(=O)Nc1ncc(C)[nH]1` | -1.107% |
| 2 | `COC(=O)C1=C(C)NC(=O)/C1=C\c1ccccc1` | 33.02% |
| 3 | `CN1C(=O)[C@H]2CN(Cc3cccc(Br)c3)C[C@H]2C1=O` | 23.09% |
| 4 | `CNC(=O)c1cnn(C2CCCCC2)c1` | -14.48% |
| 5 | `O=C(c1cc(Br)c[nH]1)N1CCN2CCCCC2C1` (centres unmarked) | 66.85% |
| 6 | `NCCc1ccc(F)cn1` | 17.11% |
| 7 | `CC1c2cccn2CCN1CC(N)=O` (centres unmarked) | -31.59% |
| 8 | `CNC(=O)[C@@H](C)NC(=O)c1ccc(-c2ccc(C)o2)s1` | 68.2% |
| 9 | `CN1CCC(Nc2ccc(Br)cn2)CC1` | -8.269% |
| 10 | `O=S(=O)(CCNC1CCCSC1)NCC1CCC1` (centres unmarked) | 47.26% |
| 11 | `C[C@@H]1CN(c2nccc(N)n2)CC[C@]1(C)O` | 14.33% |
| 12 | `CCc1nccn1CCCNC(=O)CN1CCOC1=O` | -0.6353% |
| 13 | `NC(=O)c1ccc(NC(=O)c2cc(Cl)ccn2)cc1` | -19.78% |
| 14 | `Cc1csc(N2CCCN(C(=O)c3cnsn3)CC2)n1` | 33.12% |
| 15 | `CC(C)N(CC(N)=O)C(=O)COc1ccc(F)cc1Br` | 19.91% |
| 16 | `OCCOc1ccc(CN2CCCCCC2CO)cc1` (centres unmarked) | -3.443% |
| 17 | `CC(=O)NC(C(=O)N(C)Cc1ccc(F)cc1)C(C)C` (centres unmarked) | -8.325% |
| 18 | `CN(C(=O)c1cccnc1)C1CCc2ccccc21` (centres unmarked) | 17.07% |
| 19 | `CN(CC(=O)N1CCNC(=O)C1)Cc1csc(Br)c1` | 8.064% |
| 20 | `O=C(NCC1(CO)CC1)OCc1ccccc1` | 54.81% |
| 21 | `CNC(=O)C(C)NS(=O)(=O)c1ccc(OC)c(Cl)c1` (centres unmarked) | 15.03% |
| 22 | `O[C@H]1C[C@H](N2CCOCC2)C1` | -3.264% |
| 23 | `CCN(Cc1cnc(N)nc1)CC1CCOCC1` | -7.657% |
| 24 | `N#Cc1c/c(=N\CC2CCCO2)cc[nH]1` (centres unmarked) | 4.25% |
| 25 | `O=C(CN1CCCC(O)C1)NCCCc1ncc[nH]1` (centres unmarked) | -0.968% |
| 26 | `CCNC(=O)C1CCN(C(=O)Cc2cccc(O)c2)C1` (centres unmarked) | 9.323% |
| 27 | `CCCc1nnc(NCCc2ccnn2C)o1` | -4.534% |
| 28 | `CCN(C(=O)COc1ccccc1)C1CCS(=O)(=O)C1` (centres unmarked) | -24.37% |
| 29 | `O=C(NCCn1cncn1)c1cccc2c1OCCO2` | 0.1516% |
| 30 | `CNC1CCOCC1` | 44.15% |
| 31 | `CCC[C@H]1CN(c2noc(C)n2)C[C@@H]1N` | -22.8% |
| 32 | `CN1N=C(C(=O)NCCn2cccc2)CCC1=O` | -9.963% |
| 33 | `CNC(=O)NC(=O)CN1CCCCC1CNS(C)(=O)=O` (centres unmarked) | -1.335% |
| 34 | `CN1C(=O)[C@H]2CN(Cc3ccc(Cl)cc3)C[C@H]2C1=O` | 9.989% |
| 35 | `COCC(=O)N(C)C(C)Cc1ccc(OC)cc1` (centres unmarked) | -7.682% |
| 36 | `COc1cccc(C(=O)Nc2cnc(O)nc2O)c1` | 12.23% |
| 37 | `CCCN(CCO)CC(=O)NC(CC)CC` | -2.212% |
| 38 | `CNCC(=O)Nc1cc(Cl)c(OCCOC)c(Cl)c1` | 28.36% |
| 39 | `CCNC1CCCc2cccnc21` (centres unmarked) | -2.863% |
| 40 | `CN1CC(C(=O)NCCOC2CCCCC2)CC1=O` (centres unmarked) | 10.42% |
| 41 | `CN1CCC(C(=O)NCc2ccc(C#N)cc2)CC1=O` (centres unmarked) | -1.247% |
| 42 | `NC(=O)C(Cc1ccccc1)NC(=O)c1ccccc1` (centres unmarked) | -22.69% |
| 43 | `O=C1CC(c2cccc(Cl)c2)CC(=O)N1` | -19.8% |
| 44 | `CN(C)C(=O)CCCSc1nnc(C(F)F)n1C` | -1.799% |
| 45 | `CC(C)(C)OC(=O)N1CCOCC1C#N` (centres unmarked) | -0.656% |
| 46 | `O=C(OCCOc1cccnc1)C1CC1` | -1.846% |
| 47 | `CC(C)c1ncc(C(=O)N2CCS(=O)(=O)CC2)cn1` | -10% |
| 48 | `CN(C)S(=O)(=O)N1CCCC1c1ccsc1` (centres unmarked) | 32.64% |
| 49 | `N#CCOc1ccc(CN)cc1` | 15.79% |
| 50 | `CCCC(C)NC(=O)c1coc(C)n1` (centres unmarked) | 43.65% |
| 51 | `Cc1cccc(CCC(=O)OC(C)C(N)=O)c1` (centres unmarked) | 10.21% |
| 52 | `Cc1cc(=O)cc(C(=O)NCCc2cn[nH]c2)o1` | 0.2102% |
| 53 | `CNCC1CCN(c2ccncc2)CC1` | -7.195% |
| 54 | `CCN(CC)C(=O)CN(C)S(=O)(=O)N1CCOCC1` | -10.34% |
| 55 | `O=c1[nH]c(NCCO)nc2ccccc12` | 1.331% |
| 56 | `CNc1nc(C(=O)N[C@@H]2CC[C@@H](N)C2)cs1` | -18.8% |
| 57 | `COC(=O)CC1CSCCN1Cc1cnn(C)c1` (centres unmarked) | 6.491% |
| 58 | `Cc1nc(CC(=O)N[C@H]2CC[C@H]2N)cs1` | -4.256% |
| 59 | `O=C(Cn1cnnn1)NCC1(c2ccccc2)CCC1` | 15.74% |
| 60 | `CCNC(=O)CN1CCN(c2cc(C)nc(C)n2)CC1` | 0.961% |
| 61 | `Cn1c(CN)nc2cccc(Cl)c21` | 14.25% |
| 62 | `CN1CCCC1CCSc1nc(N)c(C#N)cc1C#N` (centres unmarked) | -0.8363% |
| 63 | `CCc1noc(C)c1C(=O)Nc1ccon1` | 24.91% |
| 64 | `O=C(N1CCNCC1)C1(c2ccc(F)cc2F)CCC1` | 1.571% |
| 65 | `Cc1ccc(C(=O)C2CCN(S(C)(=O)=O)CC2)cc1` | -23.61% |
| 66 | `NS(=O)(=O)N1CCN(CC(=O)N2CCCCC2)CC1` | -22.99% |
| 67 | `NCC1CN(Cc2c(Cl)cncc2Cl)CCO1` (centres unmarked) | 50.48% |
| 68 | `N[C@H]1CC[C@H](Nc2ccccn2)CC1` | -1.956% |
| 69 | `c1cncc(CCNc2ccc3nnnn3n2)c1` | -1.489% |
| 70 | `Cn1c(=O)c2nc(N3CCCCC3)[nH]c2n(C)c1=O` | -5.183% |

6 of the entries, repeated:

* CCN(Cc1cnc(N)nc1)CC1CCOCC1 | -7.657%
* CCCc1nnc(NCCc2ccnn2C)o1 | -4.534%
* CN(CC(=O)N1CCNC(=O)C1)Cc1csc(Br)c1 | 8.064%
* CCCC(C)NC(=O)c1coc(C)n1 (centres unmarked) | 43.65%
* O=C(NCCn1cncn1)c1cccc2c1OCCO2 | 0.1516%
* O=C(c1cc(Br)c[nH]1)N1CCN2CCCCC2C1 (centres unmarked) | 66.85%

The values are deposited in ChEMBL (CHEMBL3988442, “University of Dundee, Small-Polar-MMV Screening Library” (2021)).